# Screening data, single-dose tests

Sequences of proteins named here, by UniProt entry; tags and fusion partners are left off. Residues count along the entry.
UniProt Q8IDJ8, 1-583: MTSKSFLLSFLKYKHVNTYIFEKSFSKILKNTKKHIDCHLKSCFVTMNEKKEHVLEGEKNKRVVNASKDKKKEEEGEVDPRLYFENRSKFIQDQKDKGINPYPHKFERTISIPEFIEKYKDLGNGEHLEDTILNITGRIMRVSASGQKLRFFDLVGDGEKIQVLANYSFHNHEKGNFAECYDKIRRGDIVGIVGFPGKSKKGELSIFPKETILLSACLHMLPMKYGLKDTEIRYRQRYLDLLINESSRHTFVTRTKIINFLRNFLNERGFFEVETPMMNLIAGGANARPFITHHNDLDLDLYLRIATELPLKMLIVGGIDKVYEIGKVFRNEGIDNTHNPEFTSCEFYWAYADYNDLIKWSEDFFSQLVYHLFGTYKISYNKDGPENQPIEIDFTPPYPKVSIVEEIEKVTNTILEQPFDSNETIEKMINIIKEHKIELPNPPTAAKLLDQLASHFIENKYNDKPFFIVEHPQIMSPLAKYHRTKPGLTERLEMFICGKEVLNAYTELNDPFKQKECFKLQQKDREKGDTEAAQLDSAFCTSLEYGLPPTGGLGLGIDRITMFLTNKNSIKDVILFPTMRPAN
UniProt P9WFT3, whole entry: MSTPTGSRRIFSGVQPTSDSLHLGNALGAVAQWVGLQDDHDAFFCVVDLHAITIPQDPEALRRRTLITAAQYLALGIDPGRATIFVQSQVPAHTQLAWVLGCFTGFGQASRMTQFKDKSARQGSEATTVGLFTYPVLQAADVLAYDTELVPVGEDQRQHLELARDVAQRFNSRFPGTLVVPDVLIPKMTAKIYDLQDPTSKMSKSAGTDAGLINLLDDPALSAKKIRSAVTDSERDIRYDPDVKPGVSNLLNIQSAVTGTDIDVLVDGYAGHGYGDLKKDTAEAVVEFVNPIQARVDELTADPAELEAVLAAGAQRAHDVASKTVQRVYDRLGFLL

PfKRS1: 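Lysine-tRNA ligase, Plasmodium falciparum 3D7 (UniProt Q8IDJ8). Enzyme assay of the cytosolic lysyl-tRNA synthetase in 384-well plates, read by luminescence. Tested at 30 µM. Direction is inferred from only a few compounds that gave an IC50; most scored high, so higher reads as stronger inhibition. Of about 69,000 compounds tested this way, about 49 (0.071%) reached 50% or more in at least one test.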
MtTrpRS: 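Tryptophan-tRNA ligase, Mycobacterium tuberculosis (UniProt P9WFT3). Enzyme assay of tryptophanyl-tRNA synthetase; the read-out is not stated. Tested at 10 µM. Direction is not recorded; retested compounds ran higher, which suggests that high means inhibition. Of about 65,000 compounds tested this way, about 64 (0.098%) reached 50% or more in at least one test.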
Leishmania in macrophages: 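Cell assay of Leishmania donovani living inside macrophages; the read-out is not stated. Concentration: 30 µM. Higher reads as stronger inhibition (inferred: compounds with an IC50 in retests scored well above the rest). Size under these conditions: about 69,000 compounds, about 1,000 of them at 50% or above in at least one test.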

Each number is a percent effect as filed.
The controls that fix the scale are not given in the record; negative values are as filed.
Compounds were drawn at random from those tested, without regard to their results.
Two or more numbers in one place are separate tests of the same structure; such repeats can differ widely.
A dash means the value is not listed here; it may have been measured.

Compound,PfKRS1,MtTrpRS,Leishmania in macrophages
COc1ccccc1CNCc1nn(-c2ccccc2)c2c1CCC2,3.053%,3.532%,72.37%
Cc1cc(C(F)(F)F)n2nc(C3CCN(S(C)(=O)=O)CC3)cc2n1,-0.1281%,-10.92%,6.559%
O=C(CC1=CSC2=NCCN12)N1CCCC(CCc2cccc(F)c2)C1 (configuration not stated),5.284%,2.352%,-2.455%
CC(C)Nc1nc2c(cc1C(=O)O)CCN(Cc1ccsc1)CC2.O=C(O)C(F)(F)F.O=C(O)C(F)(F)F,-,-,-3.155%
CC(C)c1csc(C2CCCN(C(=O)Cn3ccccc3=O)C2)n1 (configuration not stated),1.273%,-0.3145%,-18.46%
CCn1c(C)nnc1SCCNc1nc(C)nc2ncccc12,-0.26%,-0.867%,28.55%
CC(C)n1ccnc1C1CCCN(c2nc3ccccc3s2)C1 (configuration not stated),2.647%,-1.213%,16.55%
CCNC(=O)[C@@H]1CCCN1C(=O)c1cccc(CCC(C)(C)O)c1,0.704%,-0.9032%,-28.42%
CC(C)CN1C(=O)COC[C@@H]1[C@H](O)c1ccc(NC(=O)C2CC2)cc1,0.02477%,3.432%,-
Fc1ccccc1CN1CCC(c2n[nH]c(C3CC3)n2)CC1,6.791%,2.178%,3.496%
O=C(O)C(F)(F)F.O=C(O)C(F)(F)F.O=C1CCC2(CCN(Cc3ccc(F)cc3)CC2)N1CCN1CCCC1,-,-,10.31%
O=C(O)C(F)(F)F.O=S(=O)(N[C@@H]1CCO[C@]2(CCN(CC3CCOCC3)C2)C1)C1CC1,-,-,12.64%
COc1c(C2CCCN2C(=O)c2scnc2C)c(C)nn1C (configuration not stated),2.998%,-0.779%,10.84%
CN1CCC(NC(=O)CCCc2cc(Cl)sc2Cl)C1=O (configuration not stated),5.502%,2.062%,1.385%
Cn1cc(CN2CCn3cc(Cn4cccn4)nc3C2)cn1,0.7144%,1.383%,-
[H][C@]12CC[C@]([H])(CN(c3cc(N)nc(SC)n3)C1)N(Cc1cscn1)C2=O,-,-,9.853%
COc1cccc(NC(=O)N(CCC(F)(F)F)C[C@H](O)CO)c1,0.7919%,-6.901%,12.39%
Cc1ccoc1C(=O)NC1CCN(C(=O)Nc2ccccn2)CC1,1.842%,-2.382%,9.079%
Cn1cc(Br)cc1C(=O)NC1(C#N)CC1,-5.676%,11.25%,-10.07%
CCc1nc2c(N3CCC4(CC3)CC(=O)N(CC)C4)ncnc2o1,2.233%,-2.093%,0.202%
CC(C)c1ccc(C2(C(=O)NCCS(N)(=O)=O)CCC2)cc1,3.67%,-5.727%,-5.336%
O=C(O)C(F)(F)F.[H][C@]12CCN(C(=O)c3ccc(C)o3)C[C@@]1([H])OCCN(C1CCOCC1)C2,-,-,17.84%
CCc1ncc2c(n1)CN(CCCc1nc3ccccc3o1)CC2,-0.6749%,26.09%,-21.17%
Cc1cc(F)ccc1-n1cc(O)c(C(N)=O)n1,3.773%,3.732%,-16.14%
Cc1ccc(CCCC(=O)N2CCCC(CS(N)(=O)=O)C2)s1 (configuration not stated),1.302%,1.568%,-1.856% and 17.71%
CCOCc1cncc2c1CCN(C(=O)c1cccc(C#N)c1)C2,4.992%,-3.171%,14.78% and -1.481%
O=C(O)C(F)(F)F.O=C(O)C(F)(F)F.[H][C@@]12CCN(CC(=O)N(C)C)[C@@]1([H])CCN2Cc1cc(C)c(C)o1,-,-,-2.665%
CC(C)c1ncc2c(n1)CN(CC(=O)Nc1ccc(Cl)cn1)CC2,2.099%,-3.516%,7.176%
Cc1cnc(NC(=O)N2CCCCCC2)s1,3.187%,-3.786%,5.359%
Cc1nonc1C(=O)N1CCCC(c2ncncc2-c2ccncc2)C1 (configuration not stated),-0.9414%,0.5286%,7.467%
CC(C)Oc1ncnc2c1CCN(c1cc(C(F)(F)F)ncn1)CC2,0.5718%,-8.085%,33.4%
CC(C)c1nn(C)c(N(C)C)c1CNCC(O)c1cccc(F)c1 (configuration not stated),2.046%,-6.646%,19.8%
O=C(NCC(=O)N1CC2(CCCC2)c2c(F)cccc21)C1CC1,9.045%,-1.445%,-22.68%
CCCS(=O)(=O)N1CCC2(CN(c3ccsc3)C(=O)CN2C)C1 (configuration not stated),1.842%,-1.126%,-
O=C(c1cc2c([nH]c1=O)CCC2)N1CCCCCC1c1ccncc1 (configuration not stated),3.758%,-1.816%,26.35%
O=C(O)c1ccc(-c2cscn2)cc1,-0.5207%,-24.36%,21.16%
CSc1ncccc1C(=O)N1C[C@H]2CC[C@@H]1CN(C(C)=O)C2,3.199%,-0.7971%,-
Cc1cc(NC(=O)c2ccc(N3CCOCC3)c(C)c2)[nH]n1,0.7024%,-4.886%,-6.752%
O=C(O)C(F)(F)F.c1ccc(CN2CCOC3(COCCN(c4ncccn4)C3)C2)nc1 (configuration not stated),-,-,18.13%
CC(C)N(C)Cc1cnc2n1CCN(Cc1ccco1)C2.O=C(O)C(F)(F)F.O=C(O)C(F)(F)F,-,-,13.41%
O=C(C[C@@H]1COC[C@H]2CN(C3CCCC3)C[C@@H]12)N1CCCCO1,5.293%,9.558%,-
CN1CCCCC12CCN(C(=O)c1cccn1C)CC2,-0.1141%,0.541%,-
[H][C@@]12OCCN(C(=O)COc3ccc(F)cc3)[C@@]1([H])CC[C@H]2OC,-,-,-29.99%
CC(O)c1cn(CC2CCN(C(=O)c3cccc(N(C)C)c3)CC2)nn1 (configuration not stated),6.039%,0.7236%,-7.711%
COc1cccc(CNCCc2cccc(C(N)=O)c2)c1,7.26%,-4.447%,-42.74%
COc1ccnc(N2CCN(C(C)c3nc(C)no3)CC2)n1 (configuration not stated),-0.2485%,3.715%,-10.62%
CCN(CC1CCOC1)C(=O)c1ccc(N(C)C)cc1F (configuration not stated),1.071%,-1.077%,16.2%
O=C(c1ccc(F)cc1)N1C[C@@H]2CCN(c3cccnc3)C[C@@H]2C1,-1.904%,-7.325%,-
c1csc(-c2nc(CN3CCn4c(nnc4C4CC4)C3)co2)c1,-3.386%,-0.4223%,4.831%
CN(C)CCN1CCC2(CCN(C(=O)c3ccncc3)CC2)C1=O.O=C(O)C(F)(F)F.O=C(O)C(F)(F)F,-,-,5.679%
CCC(CC)c1cc(CNC(=O)N2CCCC(C(=O)NC)C2)on1 (configuration not stated),2.191%,-1.143%,-66.91%
CCc1ccc2nc(NCCCN(CCO)CCO)cc(C)c2c1,0.7792%,-1.149%,97.87%
CC(=O)c1cccc(S(=O)(=O)NCC(C)(O)c2cccs2)c1 (configuration not stated),6.894%,2.744%,19.41%
CN(CC(=O)N1CCCC1c1noc(C2CC2)n1)C1CC1 (configuration not stated),5.781%,-3.762%,-4.744%
CC(c1nc(-c2cccnc2)no1)N(C)CCCOc1ccccc1 (configuration not stated),5.434%,-5.624%,-18.62%
CSCC[C@@H](CO)Nc1ccc(-c2nc(-c3ccccc3C)no2)cn1,1.468%,-26.91%,-74.1%
CNC(=O)c1ccc(C2CN(C(=O)COC)CCO2)nc1 (configuration not stated),5.17%,2.917%,-5.164%
CN(Cc1ccc2c(c1)OCO2)C(=O)c1ccn(C)c(=O)c1,-0.2828%,-3.191%,-0.8245%
CC(=O)NC(CC(=O)Nc1nc(C)c(C)s1)c1ccccc1 (configuration not stated),6.79%,1.632%,-8.066%
COCCCC(=O)N(CCC(=O)O)Cc1ccc(F)c(F)c1,2.301%,4.111%,-0.3586%
CC(C)(C)C(=O)N1CC(=O)N(Cc2ccco2)CC(O)C1 (configuration not stated),5.356%,-,0.04411%
Cl.Cn1ccnc1N1CCN(C(=O)Cc2ccc(Cl)cc2)CC1,-,-,13.04%
NC(=O)c1nc(CC(=O)Nc2cccc(C(F)(F)F)c2)no1,5.462%,1.699%,33.93%
CN1CCN(Cc2cccnc2)C2(CCN(Cc3ccoc3)C2)C1=O (configuration not stated),6.365%,6.667%,-
O=S1(=O)CCC(n2cc(C3=CCN(CCn4cccc4)CC3)cn2)C1 (configuration not stated),3.656%,7.301%,0.6136%
O=C(c1ccoc1)N1CC[C@H]2C[C@@H](c3nnc(C4CC4)o3)O[C@@H]2C1,1.028%,-,-
CCC1COCCN1C(=O)NCc1nccn1CCc1ccccc1 (configuration not stated),1.431%,-0.7157%,0.9037%

The values are deposited in ChEMBL (CHEMBL3988442, “University of Dundee, Small-Polar-MMV Screening Library” (2021)).